Measurements from article PMC11595209.
No constants are given. Whether binding was seen depends on the method and setting. Binding seen in cells or lysates may run through a third protein. Binding can be weak; no strength is given. Tags and fused reporters may be left off the sequences shown.

T1: cucumber mosaic virus (CMV) movement protein, BiFC fusion (cucumber mosaic virus) (UniProt Q00271)
T1 sequence: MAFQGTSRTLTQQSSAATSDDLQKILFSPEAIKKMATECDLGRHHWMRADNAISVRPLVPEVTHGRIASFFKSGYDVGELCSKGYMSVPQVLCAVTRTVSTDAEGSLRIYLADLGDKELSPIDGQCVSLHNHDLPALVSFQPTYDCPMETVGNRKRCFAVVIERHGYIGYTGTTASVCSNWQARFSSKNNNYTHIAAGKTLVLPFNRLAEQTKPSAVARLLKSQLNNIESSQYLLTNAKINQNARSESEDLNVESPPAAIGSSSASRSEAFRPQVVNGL

T2: cauliflower mosaic virus (CaMV) movement protein, BiFC fusion (cauliflower mosaic virus) (UniProt P03545)
T2 sequence: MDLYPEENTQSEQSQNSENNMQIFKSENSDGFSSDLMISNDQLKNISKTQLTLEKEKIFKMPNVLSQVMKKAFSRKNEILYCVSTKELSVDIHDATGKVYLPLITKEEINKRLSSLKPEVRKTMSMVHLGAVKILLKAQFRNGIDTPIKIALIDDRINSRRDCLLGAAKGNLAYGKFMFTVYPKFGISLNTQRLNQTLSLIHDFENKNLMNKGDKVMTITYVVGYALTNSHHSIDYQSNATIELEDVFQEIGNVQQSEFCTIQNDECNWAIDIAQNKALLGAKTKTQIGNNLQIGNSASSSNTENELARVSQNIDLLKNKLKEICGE

T3: N. tabacum peroxidase, BiFC fusion (N. tabacum)
T3 sequence: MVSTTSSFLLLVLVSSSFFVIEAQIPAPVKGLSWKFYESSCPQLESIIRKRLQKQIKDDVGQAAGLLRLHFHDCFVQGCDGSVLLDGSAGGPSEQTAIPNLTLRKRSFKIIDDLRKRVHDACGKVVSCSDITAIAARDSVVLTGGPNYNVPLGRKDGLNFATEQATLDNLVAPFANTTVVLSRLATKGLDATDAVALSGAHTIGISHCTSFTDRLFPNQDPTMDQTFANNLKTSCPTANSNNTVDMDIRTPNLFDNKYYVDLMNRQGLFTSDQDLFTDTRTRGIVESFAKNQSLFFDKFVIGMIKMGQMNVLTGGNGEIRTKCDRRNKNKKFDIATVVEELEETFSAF

B1: N. tabacum peroxidase, BiFC fusion (protein, UniProt A0A1S4BIW4 1-348)
chain: T3 sequence
B2: N. tabacum 14-3-3A protein, BiFC fusion (protein, UniProt A0ABD8EQ38 1-255)
chain: MASPREENVYLAKLAEQAERYEEMVEFMEKVVGAGDDELTVEERNLLSVAYKNVIGARRASWRIISSIEQKEESRGNEDHVASIKTYRSKIESELTSICNGILKLLDSKLIGTAATGDSKVFYLKMKGDYYRYLAEFKTGAERKEAAENTLSAYKSAQDIANVELAPTHPIRLGLALNFSVFYYEILNSPDRACNLAKQAFDEAIAELDTLGEESYKDSTLIMQLLRDNLTLWTSDMQDDGTDEIKEPSKAEEQQ

Experiments:
Assay in all cases: split reporter; BiFC with NtGFP and CtGFP fragments of EGFP fused at the N- or C-terminus of each protein; co-agroinfiltration of N. benthamiana leaves (OD600 0.4, mixed in equal proportions); confocal microscopy
[1] = biological target: T1, cucumber mosaic virus (CMV) movement protein, BiFC fusion (cucumber mosaic virus)
[2] = biological target: T2, cauliflower mosaic virus (CaMV) movement protein, BiFC fusion (cauliflower mosaic virus)
[3] = biological target: T3, N. tabacum peroxidase, BiFC fusion (N. tabacum)
[4] = biological target: cowpea mosaic virus (CPMV) movement protein, BiFC fusion (cowpea mosaic virus)
[5] = biological target: N. tabacum eukaryotic initiation factor 4A, BiFC fusion (N. tabacum)

Row | Molecule | binding [1] | binding [2] | binding [3] | binding [4] | binding [5]
1 | N. tabacum eukaryotic initiation factor 4A, BiFC fusion | binds | binds | binds | – | –
2 | B1 | – | – | – | no binding | –
3 | B2 | – | – | – | binds | binds
